Assay results as given in PubChem BioAssay AID1487 (National Center for Advancing Translational Sciences (NCATS), 2009).
Some of the results follow. The main result of the screen is listed elsewhere. These columns were measured beside it and carry no call. Most of these compounds were active or inconclusive in the main read-out, so they are no random draw. The note in brackets gives the kind of curve behind each potency; many fits are weak.

Experiment: qHTS Assay for Modulators of Lamin A Splicing
Settings: HeLa LMNA splicing GFP/RFP minigene ratio, 48 h
In short: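 S3 HeLa cells stably expressing lamin A-EGFP splicing minigene plus DsRed2, 600 cells/well, 48 h compound exposure at 37C. Laser-scanning cytometry; analysed as GFP (500-530 nm)/RFP (575-640 nm) total intensity ratio; 0.5% DMSO vehicle.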

[1] = measured here: RFP viability control channel
[2] = measured here: GFP splicing reporter channel

## CCCNC(=O)OC[C@H]1O[C@H](CCO/N=C/C[C@@H]2C=C[C@H](OC(C)=O)[C@@H](COC(C)=O)O2)C=C[C@@H]1Oc1ccc(OC)cc1
[1]
  AC50: 31.6 µM [rising, single point]

## CCn1cc(/C=C/C(=O)Nc2c(C)nn(Cc3ccccc3)c2C)cn1
[2]
  AC50: 7.08 µM [rising, full curve]
[1]
  AC50: 8.91 µM [rising, partial curve]

## CCOc1ccc(OCC)c(NS(=O)(=O)c2c(C)[nH]c(=O)[nH]c2=O)c1
[1]
  AC50: 1.58 µM [falling, partial curve, poor fit]

## Cc1ccc(C)c(NC(=O)CSc2c(C)cnc3c2c(=O)n(C)c(=O)n3C)c1
[2]
  AC50: 35.5 µM [rising, single point]
[1]
  AC50: 31.6 µM [rising, single point]

## N[C@@H](Cc1c[nH]c2ccc(O)cc12)C(=O)O
[1]
  AC50: 0.0398 µM [falling, full curve, poor fit]

## Cc1[nH]c2ccccc2c1C(=O)COC(=O)c1c(-c2ccccc2)noc1C
[1]
  AC50: 35.5 µM [rising, single point]

## CN(C)c1ncc2nc(-c3ccccc3)c(=O)n(CCc3ccccc3)c2n1
[2]
  AC50: 0.00891 µM [falling, full curve, poor fit]

## N#CC1=C(N)SC(N)=C(C#N)C1c1ccc([N+](=O)[O-])cc1
[1]
  AC50: 35.5 µM [rising, single point]

## COc1cc(-c2nnc(COc3ccc4cc(Br)ccc4c3)o2)cc(OC)c1OC
[2]
  AC50: 4.47 µM [rising, full curve, poor fit]
[1]
  AC50: 4.47 µM [rising, full curve, poor fit]

## CCCCNC(=O)c1onc(CSc2ccccc2CC)c1C(=O)O
[2]
  AC50: 0.0355 µM [falling, partial curve]

## CCCC1=NN(c2ccc([N+](=O)[O-])cc2)C(=O)/C1=C/N(C)C
[2]
  AC50: 31.6 µM [rising, single point]

## CC(=O)OC1COC(N2CCc3cc(Br)c([N+](=O)[O-])cc32)C(OC(C)=O)C1OC(C)=O (stereo not drawn)
[1]
  AC50: 35.5 µM [rising, single point]

## CCc1nc(NCC2CCCO2)c2oc3ccccc3c2n1 (stereo not drawn)
[2]
  AC50: 17.8 µM [rising, single point]

## Cc1ccc(-c2csc(NC(=O)Cc3ccc(F)cc3)n2)o1
[1]
  AC50: 35.5 µM [falling, single point]

## NNc1nc(NCc2ccccc2)nc(N2CCOCC2)n1
[1]
  AC50: 7.08 µM [rising, single point]

## CC(C)(C)c1ncc(S(=O)(=O)c2ccc(C(F)(F)F)cn2)c(N)n1
[2]
  AC50: 0.00447 µM [rising, full curve, poor fit]

## O=C(NC(NC(=S)Nc1cc(Cl)ccc1Cl)C(Cl)(Cl)Cl)c1ccco1 (stereo not drawn)
[2]
  AC50: 31.6 µM [falling, single point]
[1]
  AC50: 35.5 µM [falling, single point]

## O=C(NC(=S)Nc1ccc(Br)cn1)c1cccs1
[2]
  AC50: 1.41 µM [rising, full curve, poor fit]
[1]
  AC50: 1.12 µM [rising, full curve]

## NC(=O)c1cc(-c2ccccc2)nc(N2CCOCC2)n1
[1]
  AC50: 14.1 µM [rising, partial curve]

## CCNc1ccc(Br)cc(C(=O)/C=C/c2ccc(Cl)cc2Cl)c1=O
[2]
  AC50: 25.1 µM [falling, single point]
[1]
  AC50: 12.6 µM [falling, single point]

## COc1ccc(NC(=O)c2ocnc2C)cc1OC
[2]
  AC50: 0.708 µM [falling, partial curve]
[1]
  AC50: 0.631 µM [falling, partial curve]

## CC1CCN(C(=O)CCS(=O)(=O)c2cc3c(cc2Cl)NC(=O)CO3)CC1
[1]
  AC50: 15.8 µM [rising, single point]

## Fc1ccc(Nc2nc(SCc3cccc(F)c3)nc3ccccc23)cc1
[2]
  AC50: 35.5 µM [falling, partial curve, poor fit]
[1]
  AC50: 35.5 µM [falling, partial curve]

## COc1ccc(NC(=O)c2nc(C)n(-c3ccc([N+](=O)[O-])cc3)n2)cc1
[2]
  AC50: 4.47 µM [rising, full curve, poor fit]
[1]
  AC50: 6.31 µM [rising, partial curve]

## N#CCCn1c(=O)c(-c2cccc(C#N)c2)nc2cnc(Oc3cccc(Cl)c3)nc21
[2]
  AC50: 7.08 µM [falling, partial curve]

## COc1ccccc1N1CCN(C(c2cccs2)C(C)NS(=O)(=O)c2ccccc2)CC1 (stereo not drawn)
[1]
  AC50: 35.5 µM [rising, single point]

## c1ccc(N2CCN(c3c4c(nc5ncnn35)CCC4)CC2)cc1
[2]
  AC50: 7.08 µM [rising, partial curve]
[1]
  AC50: 12.6 µM [rising, partial curve]

## CCN(CC)C(=O)Nc1cnc2ccccc2c1
[1]
  AC50: 0.00447 µM [falling, full curve, poor fit]

## CNC(=S)N/N=C(\C)c1ccc2c(c1)OCO2
[1]
  AC50: 0.562 µM [rising, partial curve, poor fit]

## Cc1ccc(-c2csc(N(CCCN3CCOCC3)C(=O)c3ccco3)n2)cc1
[2]
  AC50: 12.6 µM [rising, single point]

## COc1ccc(-c2nn(CC(=O)NCCc3ccccc3)c(=S)n2C)cc1
[2]
  AC50: 20 µM [rising, partial curve, poor fit]
[1]
  AC50: 17.8 µM [rising, partial curve]

## CC(=O)Nc1cccc(C(=O)/C=C/c2ccc(F)cc2)c1
[2]
  AC50: 7.94 µM [falling, partial curve, poor fit]

## CCC1CCC(C(=O)NNC(=O)c2cc(-c3ccco3)[nH]n2)CC1 (stereo not drawn)
[1]
  AC50: 3.16 µM [falling, partial curve]

## COc1ccc2cc(CN(Cc3cccnc3)S(=O)(=O)c3ccccc3)c(=O)[nH]c2c1
[2]
  AC50: 0.00891 µM [rising, full curve, poor fit]
[1]
  AC50: 20 µM [rising, partial curve, poor fit]

## O=C(Nc1sc2c(c1C(=O)c1ccc(Cl)cc1)CCCC2)c1cccnc1
[2]
  AC50: 5.62 µM [rising, partial curve, poor fit]
[1]
  AC50: 5.62 µM [rising, partial curve]
